Reference: PubChem BioAssay AID652259 (Drosophila RNAi Screening Center, 2013)
The deposit covers about 22,000 reagents; below is a random part of those that have a named target and a result. Of all reagents, 233 (1.1%) got an active call. 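Light values are raw, unnormalised plate reads; the ratio scores behind the reporter calls were not deposited.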 Unmarked entries are inactive. The record does not give: the amount of reagent, the time to read-out, the dose of the treatment.

Assay: 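Genome-wide hunt for genes that control Wingless pathway activity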 (primary screen)
System: Drosophila clone 8 imaginal disc epithelial cells
Reagent: long dsRNA against Drosophila genes
Treatment: pathway stimulated by co-transfected Wingless expression plasmid
Measured: 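Dual luciferase reads per well after Wingless plasmid stimulation: reporter firefly light and Renilla control light; activity is firefly divided by Renilla, a ratio not deposited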
Reading the numbers: firefly reporter light: higher = more Wg reporter light, before normalisation; Renilla control light: higher = more transfected or surviving cells
Call rule: 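Strong candidates differ from their plate mean by at least two out of four per-plate statistical tests; weak candidates meet just one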
Meaning of the calls: active = candidate regulator (raises or lowers reporter); inactive = not a candidate

| gene knocked down | dsRNA | reporter change call, replicate 1 | firefly reporter light, replicate 1 | firefly reporter light, replicate 2 | Renilla control light, replicate 1 | Renilla control light, replicate 2 |
| --- | --- | --- | --- | --- | --- | --- |
| RpS15 (Ribosomal protein S15) | DRSC07151 | – | 4473 | – | 1973 | – |
| CG10959 | DRSC17769 | – | 4816 | 5977 | 1264 | 1658 |
| CG15450 | DRSC20522 | – | 12778 | – | 7232 | – |
| CG33958 | DRSC06472 | – | 4864 | – | 2042 | – |
| CG33958 | DRSC06944 | – | 9744 | – | 2874 | – |
| CG14483 | DRSC06455 | – | 7654 | – | 3205 | – |
| Vha44 (Vacuolar H[+] ATPase 44kD subunit) | DRSC07572 | Wg reporter activity raised | 30471 | – | 5009 | – |
| Vha44 (Vacuolar H[+] ATPase 44kD subunit) | DRSC07573 | – | 7561 | – | 1866 | – |
| p47 | DRSC06046 | – | 15258 | – | 5587 | – |
| frj (farjavit) | DRSC03250 | – | 11301 | – | 3596 | – |
| CG10477 | DRSC09732 | – | 1248 | 9421 | 1002 | 3388 |
| Cisd2 (CDGSH iron sulfur domain 2) | DRSC14904 | – | 9632 | – | 3876 | – |
| CG4887 | DRSC00670 | – | 3738 | 10008 | 1933 | 4381 |
| CG4887 | DRSC21563 | – | 7.73e5 | 7.30e5 | 3.92e5 | 3.64e5 |
| 128up (upstream of RpIII128) | DRSC05027 | – | 7580 | – | 2466 | – |
| CG14109 | DRSC10112 | – | 6423 | – | 2489 | – |
| Nadk1a (NAD kinase 1a) | DRSC05431 | – | 27553 | – | 23133 | – |
| Nadk1a (NAD kinase 1a) | DRSC06963 | – | 15634 | – | 4370 | – |
| CG5412 | DRSC15796 | – | 2624 | 4960 | 1101 | 1788 |
| ssp2 (short spindle 2) | DRSC11052 | – | 8938 | – | 2123 | – |
| CG42323 | DRSC19629 | – | 23114 | – | 11352 | – |
| CG42323 | DRSC21397 | – | 3.56e5 | 3.97e5 | 2.05e5 | 1.51e5 |
| CG13070 | DRSC09953 | – | 5605 | – | 2933 | – |
| CCHa1 (CCHamide-1) | DRSC14821 | – | 13465 | – | 2368 | – |
| MESR4 (Misexpression suppressor of ras 4) | DRSC06901 | – | 9236 | – | 1354 | – |

The list goes on; the last 2 above are carried over.
| gene knocked down | dsRNA | reporter change call, replicate 1 | firefly reporter light, replicate 1 | firefly reporter light, replicate 2 | Renilla control light, replicate 1 | Renilla control light, replicate 2 |
| --- | --- | --- | --- | --- | --- | --- |
| CCHa1 (CCHamide-1) | DRSC14821 | – | 13465 | – | 2368 | – |
| MESR4 (Misexpression suppressor of ras 4) | DRSC06901 | – | 9236 | – | 1354 | – |
| CG7379 | DRSC16237 | – | 3419 | 7882 | 1818 | 2636 |
| RabX6 | DRSC08223 | – | 4345 | – | 2775 | – |
| babos | DRSC03923 | – | 18097 | – | 9495 | – |
| babos | DRSC04397 | – | 9065 | – | 3027 | – |
| CG7099 | DRSC03006 | – | 8545 | – | 3692 | – |
| CG32983 | DRSC22367 | – | 4.72e5 | 5.46e5 | 1.16e5 | 1.53e5 |
| Oseg5 (Outer segment 5) | DRSC03209 | – | 3767 | 7204 | 1042 | 3184 |
| CG32188 | DRSC09510 | – | 2263 | – | 1074 | – |
| IntS4 (Integrator 4) | DRSC17810 | – | 2169 | 5269 | 1158 | 2818 |
| CG43755 | DRSC00012 | – | 25232 | – | 14304 | – |
| CG8607 | DRSC11012 | – | 857 | 7072 | 552 | 3127 |
| CheB38c (Chemosensory protein B 38c) | DRSC02389 | – | 2356 | 8662 | 832 | 3803 |
| twin | DRSC15259 | – | 4327 | 6096 | 2394 | 2006 |
| twin | DRSC15831 | – | 27969 | – | 19410 | – |
| twin | DRSC21363 | – | 6.30e5 | 6.06e5 | 2.53e5 | 1.13e5 |
| phtm (phantom) | DRSC20237 | – | 20019 | – | 11563 | – |
| CG3517 | DRSC15492 | – | 12684 | – | 2592 | – |
| TppII (Tripeptidyl-peptidase II) | DRSC07565 | – | 9328 | – | 3304 | – |
| Diedel2 (Diedel 2) | DRSC13952 | – | 3236 | – | 1872 | – |
| qkr58E-3 (quaking related 58E-3) | DRSC04711 | – | 12117 | – | 2865 | – |
| CG14715 | DRSC14938 | – | 6192 | – | 2192 | – |
| fbp (fructose-1,6-bisphosphatase) | DRSC02077 | – | 16642 | – | 5341 | – |
| CG13135 | DRSC02232 | – | 2134 | 6548 | 906 | 3562 |
| ft (fat) | DRSC00819 | – | 11895 | – | 5787 | – |
| CG43090 | DRSC17439 | – | 2843 | – | 1017 | – |
| Gas41 | DRSC03156 | – | 8965 | – | 3109 | – |
| CG14325 | DRSC14804 | – | 12486 | – | 2019 | – |
| CG13482 | DRSC10024 | – | 8819 | – | 3703 | – |
| CR31427 (pseudo) | DRSC22675 | – | 8.65e5 | 8.59e5 | 4.08e5 | 93749 |
| CG13300 | DRSC09974 | – | 944 | 4324 | 555 | 1640 |
| Nup160 (Nucleoporin 160kD) | DRSC02774 | – | 3271 | 9200 | 680 | 2992 |
| CG7878 | DRSC16330 | – | 14182 | – | 3066 | – |
| CG14915 | DRSC02399 | – | 2346 | 4432 | 1015 | 3792 |
| CNBP (CCHC-type zinc finger nucleic acid binding protein) | DRSC04116 | – | 1846 | 6307 | 747 | 3610 |
| CNBP (CCHC-type zinc finger nucleic acid binding protein) | DRSC04419 | – | 16172 | – | 5255 | – |
| CNBP (CCHC-type zinc finger nucleic acid binding protein) | DRSC21317 | – | 4.63e5 | 6.30e5 | 2.18e5 | 1.90e5 |
| Jig | DRSC14974 | – | 18320 | – | 4643 | – |
| Patj | DRSC08712 | – | 15280 | – | 3586 | – |
| CG6933 | DRSC10751 | – | 4615 | – | 1845 | – |
| PolA2 (DNA polymerase alpha subunit 2) | DRSC16641 | – | 6441 | – | 4418 | – |
| mRpS11 (mitochondrial ribosomal protein S11) | DRSC15732 | – | 15299 | – | 3322 | – |
| Sps1 (Selenophosphate synthetase 1) | DRSC07549 | – | 12055 | – | 3376 | – |
| CG12539 | DRSC19470 | – | 18425 | – | 7338 | – |
| Gr98c (Gustatory receptor 98c) | DRSC22212 | – | 7.15e5 | 6.82e5 | 3.40e5 | 3.25e5 |
| CG5026 | DRSC10470 | – | 2874 | – | 1344 | – |
| CG1360 | DRSC06406 | – | 3049 | 4855 | 904 | 2077 |
| galla-1 | DRSC05987 | – | 6546 | – | 3033 | – |
| Mco3 (Multicopper oxidase 3) | DRSC15926 | – | 20326 | – | 16744 | – |
